Reference: US20100077492A1
These are yes or no findings as the source states them, for the method shown. Some binding calls cover weakened binding; strength is not graded here. Sequences can lack the tags named with a protein.

Key:
[1] = molecular target: T1, human Nth1 protein (human) (UniProt P78549); assay: far western: ^32P-labelled XPG-HMK probe on proteins transferred from SDS-PAGE (FIG. 8A)
T1 sequence (looked up): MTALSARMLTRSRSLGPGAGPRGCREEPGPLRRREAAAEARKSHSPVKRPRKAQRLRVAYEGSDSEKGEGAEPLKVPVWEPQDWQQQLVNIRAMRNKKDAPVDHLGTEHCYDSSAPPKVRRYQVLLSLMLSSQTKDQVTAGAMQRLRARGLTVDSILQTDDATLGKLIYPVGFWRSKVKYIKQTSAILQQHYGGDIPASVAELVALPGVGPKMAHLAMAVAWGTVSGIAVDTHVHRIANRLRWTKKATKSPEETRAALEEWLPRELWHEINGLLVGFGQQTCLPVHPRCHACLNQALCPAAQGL

[2] = molecular target: T1, human Nth1 protein (human); assay: far western: ^32P-labelled XPG-HMK probe on hNth1 transferred from SDS-PAGE
[3] = molecular target: T1, human Nth1 protein (human); assay: slot blot: ^32P-labelled XPG-HMK probe on native proteins on nitrocellulose (FIG. 8B)

Measured: binding

B1: ^32P-labelled XPG-HMK (human XPG with a C-terminal heart muscle kinase recognition sequence tag) (enzyme)
chain: MGVQGLWKLLECSGRQVSPEALEGKILAVDISIWLNQALKGVRDRHGNSIENPHLLTLFHRLCKLLFFRIRPIFVFDGDAPLLKKQTLVKRRQRKDLASSDSRKTTEKLLKTFLKRQAIKTAFRSKRDEALPSLTQVRRENDLYVLPPLQEEEKHSSEEEDEKEWQERMNQKQALQEEFFHNPQAIDIESEDFSSLPPEVKHEILTDMKEFTKRRRTLFEAMPEESDDFSQYQLKGLLKKNYLNQHIEHVQKEMNQQHSGHIRRQYEDEGGFLKEVESRRVVSEDTSHYILIKGIQAKTVAEVDSESLPSSSKMHGMSFDVKSSPCEKLKTEKEPDATPPSPRTLLAMQAALLGSSSEEELESENRRQARGRNAPAAVDEGSISPRTLSAIKRALDDDEDVKVCAGDDVQTGGPGAEEMRINSSTENSDEGLKVRDGKGIPFTATLASSSVNSAEEHVASTNEGREPTDSVPKEQMSLVHVGTEAFPISDESMIKDRKDRLPLESAVVRHSDAPGLPNGRELTPASPTCTNSVSKNETHAEVLEQQNELCPYESKFDSSLLSSDDETKCKPNSASEVIGPVSLQETSSIVSVPSEAVDNVENVVSFNAKEHENFLETIQEQQTTESAGQDLISIPKAVEPMEIDSEESESDGSFIEVQSVISDEELQAEFPETSKPPSEQGEEELVGTREGEAPAESESLLRDNSERDDVDGEPQEAEKDAEDSLHEWQDINLEELETLESNLLAQQNSLKAQKQQQERIAATVTGQMFLESQELLRLFGIPYIQAPMEAEAQCAILDLTDQTSGTITDDSDIWLFGARHVYRNFFNKNKFVEYYQYVDFHNQLGLDRNKLINLAYLLGSDYTEGIPTVGCVTAMEILNEFPGHGLEPLLKFSEWWHEAQKNPKIRPNPHDTKVKKKLRTLQLTPGFPNPAVAEAYLKPVVDDSKGSFLWGKPDLDKIREFCQRYFGWNRTKTDESLFPVLKQLDAQQTQLRIDSFFRLAQQEKEDAKRIKSQRLNRAVTCMLRKEKEAAASEIEAVSVAMEKEFELLDKAKGKTQKRGITNTLEESSSLKRKRLSDSKGKNTCGGFLGETCLSESSDGSSSEDAESSSLMNVQRRTAAKEPKTSASDSQNSVKEAPVKNGGATTSSSSDSDDDGGKEKMVLVTARSVFGKKRRKLRRARGRKRKTRRASV
modifications: ^32P-labeled at the heart muscle kinase (HMK) recognition tag RRASV
binds: all assays above
